Experimental data: article PMC7840542
No constants are given. Whether binding was seen depends on the method and setting. Some binding calls cover weakened binding; strength is not graded here. Where a sequence is shown, tags or fusion partners need not be part of it.

T1: BD:ROH1A (Arabidopsis thaliana) (UniProt Q9CAK4)
T1 sequence: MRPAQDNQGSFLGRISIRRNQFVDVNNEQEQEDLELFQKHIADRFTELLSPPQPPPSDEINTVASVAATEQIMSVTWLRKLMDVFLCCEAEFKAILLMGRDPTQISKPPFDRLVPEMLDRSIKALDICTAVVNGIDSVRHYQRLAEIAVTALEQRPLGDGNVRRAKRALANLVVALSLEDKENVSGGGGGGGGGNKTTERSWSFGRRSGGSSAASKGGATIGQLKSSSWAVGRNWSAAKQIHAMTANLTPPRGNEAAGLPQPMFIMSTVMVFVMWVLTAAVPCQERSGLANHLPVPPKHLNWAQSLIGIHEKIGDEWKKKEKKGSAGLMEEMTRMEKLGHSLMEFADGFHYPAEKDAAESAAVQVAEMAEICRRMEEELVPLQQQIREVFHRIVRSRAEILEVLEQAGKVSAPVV

T2: BD:ROH1D (Arabidopsis thaliana) (UniProt Q9CA69)
T2 sequence: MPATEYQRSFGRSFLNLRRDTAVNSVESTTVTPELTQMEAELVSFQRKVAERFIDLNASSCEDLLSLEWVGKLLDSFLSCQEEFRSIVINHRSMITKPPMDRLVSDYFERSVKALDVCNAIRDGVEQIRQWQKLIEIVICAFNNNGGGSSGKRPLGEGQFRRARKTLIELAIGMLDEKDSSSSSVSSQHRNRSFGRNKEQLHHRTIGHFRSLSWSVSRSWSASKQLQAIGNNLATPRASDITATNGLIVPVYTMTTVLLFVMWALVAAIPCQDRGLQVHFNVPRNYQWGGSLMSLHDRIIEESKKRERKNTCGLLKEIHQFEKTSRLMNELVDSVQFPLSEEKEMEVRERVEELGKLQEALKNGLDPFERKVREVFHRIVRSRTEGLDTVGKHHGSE

B1: AD:AtEXO70C2 wild type (protein, UniProt Q9FFX6 1-695)
chain: MEKNDKDPDHDDKSKGDEKGDVVSDAHPSDDAHHQDGISNENVDVVGNAETDHQDPGDNNVDKVSQGEEAPEIRQTLESLSEELDQFLPTLSLHMEEHKDSTEEKGEDGYFQIPQFVGKFLDLFEEKLSKYDSGEPKTVWYQDPEEVSSLLEAVDRVSKLMGLLLNTKSCLDHHESLINHAGSIQQRAMAFLEDEFRIILEESVTKESVVVTDDSNSQRRSTADQQDHQNDVVVSQDHDQMLVPECGDQEIEYPGYPEDVVVVLRKIAEKMKAGGYGWECREVYLVGRRNILMRTLKQDCEFEKVSIDEVQKMSWDTLEREIPIWNKTFKDCSSLFFPGELKLAERIFPGDEGNLFCIVTHGLAIQFLGFAEAVAMTRRSTEKLFKILDIYETLRDSFPAMEELFPEELRSELRNEVTSARSRLGETAIHIFCDLEHSIKSDSSKTPVPGGAVHPLTRYTMNYLKYSCEYKDTLEQVFKSHSKMEREEEEPVESGNSAFASQLMRIMELLDGNLETKSKQYKDIPLSCIFMMNNGRYIVQKIKGSAEIHEVMGDTWCRRRSSELRNYHKNYQRETWGKLLGFLGHEGLMHNGKIVKPNLKERFKSFNATFDEIHKTQTTWVVNDEQLQSELRVSITAVMIPAYRAFMARFGQYLDPGRQTEKYVKYQPEDIEDLIDQLFEGNTSSSSTATARRRT
B2: AD:AtEXO70C2 phospho-dead (PD) variant (protein, UniProt Q9FFX6 1-695)
chain: MEKNDKDPDHDDKSKGDEKGDVVSDAHPSDDAHHQDGISNENVDVVGNAETDHQDPGDNNVDKVSQGEEAPEIRQTLESLSEELDQFLPTLSLHMEEHKDSTEEKGEDGYFQIPQFVGKFLDLFEEKLSKYDSGEPKTVWYQDPEEVSSLLEAVDRVSKLMGLLLNTKSCLDHHESLINHAGSIQQRAMAFLEDEFRIILEESVTKESVVVADDANAQRRSTADQQDHQNDVVVSQDHDQMLVPECGDQEIEYPGYPEDVVVVLRKIAEKMKAGGYGWECREVYLVGRRNILMRTLKQDCEFEKVSIDEVQKMSWDTLEREIPIWNKTFKDCSSLFFPGELKLAERIFPGDEGNLFCIVTHGLAIQFLGFAEAVAMTRRSTEKLFKILDIYETLRDSFPAMEELFPEELRSELRNEVTSARSRLGETAIHIFCDLEHSIKSDSSKAPVPGGAVHPLTRYTMNYLKYSCEYKDTLEQVFKSHSKMEREEEEPVEAGNSAFASQLMRIMELLDGNLETKSKQYKDIPLSCIFMMNNGRYIVQKIKGSAEIHEVMGDTWCRRRSSELRNYHKNYQRETWGKLLGFLGHEGLMHNGKIVKPNLKERFKAFNATFDEIHKTQTTWVVNDEQLQSELRVSITAVMIPAYRAFMARFGQYLDPGRQTEKYVKYQPEDIEDLIDQLFEGNTSSSSTATARRRT
B3: AD:AtEXO70C2 phospho-mimetic (PM) variant (protein, UniProt Q9FFX6 1-695)
chain: MEKNDKDPDHDDKSKGDEKGDVVSDAHPSDDAHHQDGISNENVDVVGNAETDHQDPGDNNVDKVSQGEEAPEIRQTLESLSEELDQFLPTLSLHMEEHKDSTEEKGEDGYFQIPQFVGKFLDLFEEKLSKYDSGEPKTVWYQDPEEVSSLLEAVDRVSKLMGLLLNTKSCLDHHESLINHAGSIQQRAMAFLEDEFRIILEESVTKESVVVEDDDNDQRRSTADQQDHQNDVVVSQDHDQMLVPECGDQEIEYPGYPEDVVVVLRKIAEKMKAGGYGWECREVYLVGRRNILMRTLKQDCEFEKVSIDEVQKMSWDTLEREIPIWNKTFKDCSSLFFPGELKLAERIFPGDEGNLFCIVTHGLAIQFLGFAEAVAMTRRSTEKLFKILDIYETLRDSFPAMEELFPEELRSELRNEVTSARSRLGETAIHIFCDLEHSIKSDSSKEPVPGGAVHPLTRYTMNYLKYSCEYKDTLEQVFKSHSKMEREEEEPVEDGNSAFASQLMRIMELLDGNLETKSKQYKDIPLSCIFMMNNGRYIVQKIKGSAEIHEVMGDTWCRRRSSELRNYHKNYQRETWGKLLGFLGHEGLMHNGKIVKPNLKERFKDFNATFDEIHKTQTTWVVNDEQLQSELRVSITAVMIPAYRAFMARFGQYLDPGRQTEKYVKYQPEDIEDLIDQLFEGNTSSSSTATARRRT

Key:
[1] = target: T1, BD:ROH1A (Arabidopsis thaliana); test: two-hybrid; … GAL4 system, yeast AH109; ROH1 paralogs fused to the GAL4 DNA-binding domain (pGBKT7), EXO70C2 forms fused to the GAL4 activation domain (pGADT7); serial 30x dilutions spotted on -Trp-Leu, -Trp-Leu-His or -Trp-Leu-His-Ade plates, 3 days
[2] = target: T2, BD:ROH1D (Arabidopsis thaliana); test: as above

Row | Binder | binding [1] | binding [2]
1 | B1 | binds | binds weakly
2 | B2 | binds | binds weakly
3 | B3 | binds | binds weakly
